# Experimental data as given in paper PMC7171490.
# The chains behind the UniProt entries cited, without tags or fusion partners.
# UniProt P15172: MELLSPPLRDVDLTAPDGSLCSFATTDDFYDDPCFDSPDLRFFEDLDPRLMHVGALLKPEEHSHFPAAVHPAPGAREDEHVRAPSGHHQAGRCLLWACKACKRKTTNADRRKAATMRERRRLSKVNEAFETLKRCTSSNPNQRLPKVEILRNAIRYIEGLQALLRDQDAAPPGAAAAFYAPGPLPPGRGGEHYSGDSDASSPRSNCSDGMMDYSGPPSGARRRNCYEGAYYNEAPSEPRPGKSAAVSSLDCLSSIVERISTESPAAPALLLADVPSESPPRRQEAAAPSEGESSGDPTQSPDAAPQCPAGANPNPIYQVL
# Results are given in words; binding and its absence hold for the method and conditions named. In cells and extracts the contact can be indirect. Some binding calls cover weakened binding; strength is not graded here.
# B1: Inhibitor of DNA binding factor 4 (ID4) (protein, UniProt P47928 1-161)
# chain: MKAVSPVRPSGRKAPSGCGGGELALRCLAEHGHSLGGSAAAAAAAAAARCKAAEAAADEPALCLQCDMNDCYSRLRRLVPTIPPNKKVSKVEILQHVIDYILDLQLALETHPALLRQPPPPAPPHHPAGTCPAAPPRTPLTALNTDPAGAVNKQGDSILCR
# Biological target: MyoD1 (human (endogenous in MCF-7/Adr)) (UniProt P15172)
# Assay: co-IP; 1500 ug precleared MCF7/Adr cell lysate immunoprecipitated with 1 ug anti-MyoD1 antibody overnight at 4°C, Protein A Sepharose CL-4B; western blot for ID4 and MyoD1
binder,measurement,value
B1,binding,binds
